Measured values reported in PubChem BioAssay AID493014 (National Center for Advancing Translational Sciences (NCATS), 2011).
Some of the results follow. Shown are side measurements of this screen, not its main read-out; they come without a call. Compounds called inactive in the main read-out are mostly missing here. The note in brackets gives the kind of curve behind each potency; many fits are weak.

Assay: qHTS Assay to Find Inhibitors of Chronic Active B-Cell Receptor Signaling
Settings: ABC-DLBCL IkBa-CBG/CBR reporter, luminescence ratio (green luciferase fused to IkBa over red control in TMD8 lymphoma cells), 4 h
How it was run: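 Doxycycline induced both beetle luciferases in TMD8 lymphoma cells; IKK-driven degradation limits the IkappaBalpha-fused green signal, while red luminescence normalises for cell number and nonspecific effects. Compounds tested up to 46 uM, 4 hrs.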

[1] = measured here: CBR red luminescence, cell number
[2] = measured here: IkBa-CBG green luminescence

| SMILES | AC50 [1] | AC50 [2] |
| --- | --- | --- |
| O=C(Nc1ccc(F)cc1)Nc1ccccc1N1CCCCC1 | 7.08 µM [falling, partial curve, poor fit] | – |
| C=CCOc1ccc2oc(=O)cc(C)c2c1 | 18.4 µM [rising, partial curve, poor fit] | – |
| CN(C(=O)c1cc2sccc2n1C)C1CCCCC1 | 23.1 µM [falling, single point] | – |
| COc1ccccc1Nc1nc(-c2cccs2)cs1 | 0.316 µM [rising, full curve, poor fit] | – |
| O=C(COc1ccc(F)cc1)NCC1(N2CCCCC2)CCCCC1 | 0.116 µM [rising, full curve, poor fit] | – |
| CCN(CC)c1ccc2c(C)c(CO)c(=O)oc2c1 | 12.6 µM [rising, partial curve, poor fit] | 12.6 µM [falling, partial curve] |
| O=C(Nc1cccc(Cl)c1)c1cc(S(=O)(=O)N2CCOCC2)cs1 | 6.31 µM [falling, single point] | – |
| CCc1nnc(NC(=O)c2cccc(S(=O)(=O)N(C)c3ccccc3)c2)s1 | 18.4 µM [falling, single point] | – |
| Cc1cccc(NC(=S)N/N=C/C(C)c2ccccc2)c1C (stereo unspecified) | – | 35.5 µM [falling, partial curve, poor fit] |
| Cc1cccc(-c2nnn(Cc3nnc(NC(=O)c4ccccc4)s3)n2)c1 | 4.47 µM [rising, partial curve, poor fit] | – |
| CC(=O)Nc1cccc(NC(=O)CSc2ncc(C(=O)Nc3ccccc3)c(=O)n2C)c1 | 18.4 µM [falling, partial curve, poor fit] | – |
| O=C1C(C=NCC2CCCO2)=C(O)c2ccccc21 (stereo unspecified) | 31.6 µM [falling, single point] | – |
| COC(=O)C(C(=O)Nc1nc2ccccc2s1)C1CCCC1 (stereo unspecified) | 10 µM [falling, partial curve, poor fit] | 15.8 µM [rising, partial curve, poor fit] |
| COc1ccc(Br)cc1-c1noc(-c2ccncc2)n1 | 0.731 µM [rising, full curve, poor fit] | – |
| CN(C)c1ccc(/C=N/NC(=O)c2ccccc2O)o1 | 7.08 µM [falling, partial curve] | – |
| CC(C)Cc1nc(SCC(=O)NCc2ccccc2)n[nH]1 | 29.1 µM [rising, single point] | – |
| O=C(N/N=C/c1cccc([N+](=O)[O-])c1)c1cccs1 | 20.6 µM [falling, single point] | 18.4 µM [falling, single point] |
| O=C(c1cc2cc(F)ccc2[nH]1)N1CCc2ccccc2C1 | 0.1 µM [rising, full curve, poor fit] | – |
| c1ccc(CC2CCN(c3nc4ccccc4n4nnnc34)CC2)cc1 | 20.6 µM [falling, single point] | – |
| CCOc1ccc(Nc2nc(N(C)c3ccccc3)nc(N)c2[N+](=O)[O-])cc1 | 0.631 µM [rising, full curve, poor fit] | – |
| CCOc1ncccc1C(=O)OCC(=O)Nc1cc(S(=O)(=O)N2CCOCC2)ccc1C | 3.26 µM [rising, partial curve] | – |

| SMILES | AC50 [1] | AC50 [2] |
| --- | --- | --- |
| COc1ccc(NC2=C(C)C(=O)CC2)cc1 | 29.1 µM [rising, single point] | – |
| CC(C)OCCCNC(=O)c1cccs1 | 35.5 µM [rising, single point] | – |
| COc1ccc(S(=O)(=O)N2CCOCC2)cc1NC(=O)C1CCCN1C(=O)c1cccs1 (stereo unspecified) | 29.1 µM [rising, partial curve, poor fit] | – |
| COc1ccc(C(=O)/C(=C/c2cccs2)c2nc3ccccc3o2)cc1 | 0.259 µM [falling, full curve, poor fit] | – |
| CCOC(=O)c1c(C)oc2c1c(C=NCCO)c(O)c1ccccc12 | 35.5 µM [falling, single point] | – |
| COc1ccc2[nH]c3c(c2c1)CCN1C(=O)C(CC(=O)NCC24CC5CC(CC(C5)C2)C4)C[C@H](C(=O)N2CCOCC2)[C@@]31CCC1CCCC1 (stereo partly specified) | 1.03 µM [rising, partial curve] | – |
| COc1cccc(-n2nnnc2SCC(=O)N2CCCc3ccccc32)c1 | 11.2 µM [falling, partial curve, poor fit] | – |
| CC(C)=CCC/C(C)=C/CNC(=O)C[C@H]1C[C@H](C(=O)N2CCOCC2)[C@@]2(C)c3[nH]c4cc(CCC(=O)N(C)C)ccc4c3CCN2C1=O | 9.2 µM [falling, partial curve] | – |
| O=C(COC(=O)c1ccccc1SCC(=O)N1CCCC1)NC1CCCCC1 | 9.2 µM [rising, partial curve] | – |
| CCc1nc2oc3ccccc3c(=O)c2cc1C(=O)OC | 17.8 µM [rising, partial curve, poor fit] | – |
| O=C(NCC(c1ccco1)N1CCN(c2ccc(F)cc2)CC1)C(=O)NC1CC1 (stereo unspecified) | 0.92 µM [rising, full curve, poor fit] | – |
| O=C(NCCC1CCCCN1S(=O)(=O)c1cccs1)C(=O)Nc1ccc(F)cc1F (stereo unspecified) | 13 µM [falling, partial curve, poor fit] | – |
| COc1ccc2oc(C(=O)NC3(C)CCS(=O)(=O)C3)c(C)c2c1 (stereo unspecified) | 10.3 µM [rising, partial curve, poor fit] | – |
| COc1ccccc1OCCSc1nc2ccccc2n1CCO | 10 µM [falling, partial curve] | – |
| COCCNC(=O)c1nc2ccccc2s1 | 23.1 µM [falling, partial curve] | – |
| Cc1ccc(C(=O)N/C(=C\c2ccc(-c3ccc([N+](=O)[O-])cc3)o2)C(=O)NC2CCS(=O)(=O)C2)cc1 (stereo unspecified) | 7.31 µM [falling, partial curve] | – |
| C=C(C)c1cccc(C(C)(C)NC(=O)NCc2ccc(OC)c(OC)c2)c1 | 35.5 µM [falling, single point] | – |
| O=C(Nc1cccc(S(=O)(=O)N2CCCC2)c1)c1ccc2c(=O)n3c(nc2c1)CCCCC3 | 16.4 µM [falling, partial curve] | – |
| C=CCn1cc(C(=O)OC)c(=O)c2cc(S(=O)(=O)N3CCC(C)CC3)ccc21 | 3.16 µM [falling, partial curve, poor fit] | – |
| O=C1C2CC=C(Cl)CC2C(=O)N1CN(Cc1ccco1)CN1C(=O)C2CC=C(Cl)CC2C1=O (stereo unspecified) | 3.55 µM [rising, full curve, poor fit] | – |
| CCCCOc1cccc(/C=N/NC(=O)c2csc(C)c2C)c1 | 3.16 µM [falling, partial curve, poor fit] | – |

An excerpt of these results, with bars between the fields.
SMILES | AC50 [1] | AC50 [2]
CC(C)OCCCNC(=O)c1cccs1 | 35.5 µM [rising, single point] | –
COc1ccc(S(=O)(=O)N2CCOCC2)cc1NC(=O)C1CCCN1C(=O)c1cccs1 (stereo unspecified) | 29.1 µM [rising, partial curve, poor fit] | –

The list continues.

| SMILES | AC50 [1] | AC50 [2] |
| --- | --- | --- |
| Cc1c(C(=O)OCCOc2ccccc2)[nH]c2c1C(=O)CCC2 | 29.1 µM [falling, single point] | – |
| COc1ccc(Sc2nnc(Cc3ccccc3)c3ccccc23)cc1 | 6.31 µM [falling, single point] | – |
| COc1ccc(N2CCN(c3cc(C)c4ccccc4n3)CC2)cc1 | 6.31 µM [rising, partial curve, poor fit] | – |
| O=C(Cn1[nH]c(=O)c2ccccc2c1=O)OCC(=O)c1ccc(F)c(F)c1 | 5.8 µM [falling, partial curve, poor fit] | – |
| O=c1c2c(nc3nc(COc4ccccc4)[nH]n13)CCC2 | 1.84 µM [falling, full curve] | – |
| COc1ccc(C(=O)Nc2sc(C)c(C)c2CN2CCOCC2)cc1 | 32.6 µM [falling, single point] | – |
| Cc1cccc(C2N3CC4(C(C)C)CN2CC(C(C)C)(C3)C4=O)c1 (stereo unspecified) | 12.6 µM [rising, partial curve, poor fit] | – |
| CCc1cccc2c(C(=O)COC(=O)/C=C/c3ccc(O)c(OC)c3)c[nH]c12 | 20.6 µM [falling, single point] | – |
| O=C(NC(=S)Nc1ccccn1)c1ccc(-c2ccccc2)cc1 | 11.2 µM [falling, single point] | – |
| O=C(Nc1nnc(-c2ccco2)o1)c1ccc(S(=O)(=O)N2CCCC2)cc1 | 28.2 µM [falling, single point] | – |
| COc1ccccc1-c1noc(CCC(=O)Nc2ccccc2Cl)n1 | 18.4 µM [falling, single point] | – |
| O=C(CN1C(=O)NC2(CCCC2)C1=O)Nc1nc(-c2ccc(F)cc2)cs1 | 14.1 µM [falling, single point] | – |
| COC(=O)C(C)N1C(=O)S/C(=C/c2cc(C)n(-c3ccccn3)c2C)C1=O (stereo unspecified) | 29.1 µM [rising, single point] | 29.1 µM [falling, single point] |
| COC(=O)C(Cc1c[nH]c2ccccc12)NC(=O)C1CC1 (stereo unspecified) | 14.1 µM [falling, partial curve, poor fit] | – |
| Cc1cnc(NC(=O)c2ccc(F)c(S(=O)(=O)N3CCOCC3)c2)s1 | 23.1 µM [falling, single point] | – |
| Cc1c(NS(=O)(=O)c2ccc(N)cc2)c(=O)n(-c2ccccc2)n1C | 0.447 µM [rising, full curve, poor fit] | – |
| CN(Cc1cnn(-c2ccc(F)cc2)c1)Cc1nc(Cc2ccccc2)no1 | 0.708 µM [rising, full curve, poor fit] | – |
| CC(C)(C)C(=O)/C(=C/c1ccc(Cl)cc1)n1cncn1 | 12.6 µM [falling, partial curve, poor fit] | – |
| CCOCCOC(=O)c1[nH]c2c(c1C)C(=O)CC(c1ccc(N(C)C)cc1)C2 (stereo unspecified) | 8.2 µM [falling, partial curve, poor fit] | – |
| Cc1ccc(CNC(=O)c2cc(-c3cc(C)cc(C)c3O)n[nH]2)cc1 | 10 µM [falling, partial curve, poor fit] | – |
